Results are given in words; binding and its absence hold for the method and conditions named. Some binding calls cover weakened binding; strength is not graded here.
Target: Hematopoietic Cell E-/L-selectin Ligand (HCELL), HECA-452-reactive glycoform of CD44 (human) (UniProt P16070)
Assay: blot rolling assay: CHO-E perfused at 0.6 dyne/cm^2 over blotted ML-M membrane glycoproteins (˜100 kDa band); more interacting cells than on the ˜130 kDa band

Amino acid sequences for entries named in this document (tags omitted). A change or cut given only in a name is not applied to a line headed by its entry. Chains listed by the source or under a name are the forms on record and can include a tag or linker.
Hematopoietic Cell E-/L-selectin Ligand (HCELL), HECA-452-reactive glycoform of CD44 (P16070, form named): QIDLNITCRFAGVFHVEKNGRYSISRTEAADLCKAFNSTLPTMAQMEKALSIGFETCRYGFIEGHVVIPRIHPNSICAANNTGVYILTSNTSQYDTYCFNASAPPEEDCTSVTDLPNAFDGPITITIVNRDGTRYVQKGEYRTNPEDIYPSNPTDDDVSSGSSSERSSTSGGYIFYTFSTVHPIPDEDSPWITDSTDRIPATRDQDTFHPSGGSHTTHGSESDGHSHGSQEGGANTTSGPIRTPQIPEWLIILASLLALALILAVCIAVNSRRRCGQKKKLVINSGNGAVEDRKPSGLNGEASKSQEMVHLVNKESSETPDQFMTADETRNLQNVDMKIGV

B1: human E-selectin on CHO-E cells (receptor, UniProt P16581 22-610, looked up)
chain: WSYNTSTEAMTYDEASAYCQQRYTHLVAIQNKEEIEYLNSILSYSPSYYWIGIRKVNNVWVWVGTQKPLTEEAKNWAPGEPNNRQKDEDCVEIYIKREKDVGMWNDERCSKKKLALCYTAACTNTSCSGHGECVETINNYTCKCDPGFSGLKCEQIVNCTALESPEHGSLVCSHPLGNFSYNSSCSISCDRGYLPSSMETMQCMSSGEWSAPIPACNVVECDAVTNPANGFVECFQNPGSFPWNTTCTFDCEEGFELMGAQSLQCTSSGNWDNEKPTCKAVTCRAVRQPQNGSVRCSHSPAGEFTFKSSCNFTCEEGFMLQGPAQVECTTQGQWTQQIPVCEAFQCTALSNPERGYMNCLPSASGSFRYGSSCEFSCEQGFVLKGSKRLQCGPTGEWDNEKPTCEAVRCDAVHQPPKGLVRCAHSPIGEFTYKSSCAFSCEEGFELHGSTQLECTSQGQWTEEVPSCQVVKCSSLAVPGKINMSCSGEPVFGTVCKFACPEGWTLNGSAARTCGATGHWSGLLPTCEAPTESNIPLVAGLSAAGLSLLTLAPFLLWLRKCLRKAKKFVPASSCQSLESDGSYQKPSYIL
  binding: binds

Reference: patent publication US20090053198A1 (published 2009)
